In patent publication US20230096443A1, “NOVEL NICOTINAMIDE DI-NUCLEOTIDE DERIVATIVES AND USE THEREOF” (NUVAMID SA, priority 2019, published 2023):
Some entries share one result that the patent states for a list of compounds.

Tested on: doxorubicin-induced cardiotoxicity
Assay: Model of doxorubicin-induced cardiotoxicity
Format: in vivo, male mice
Conditions: 180 mg/kg i.p., 5 days after DOX 20 mg/kg, vs DOX vehicle
Description: The aim of the present study was to evaluate, the effects of i.p administration of Nicotinamide Mononucleotide (NMN), compound I-B and compound I-C at 180 mg/kg in the progression of a cardiotoxicity induced by doxorubicin.
76 male mice, 8-week-old at the arrival were obtained from Janvier Labs, Le Genest St Isle, 53941 St Berthevin, France. Each animal was identified with electronic chip. Each cage was numbered. Based on the animal number/cage and number of cages, the animals were assigned of unique number with the name of group and mice number.
The powder of NMN, compounds I-B and I-C (180 mg/kg) were dissolved in vehicle (the solution is used at room temperature for maximum 1 day). A fresh sample for each administration was prepared every day except the week-end (the solution is prepared on Saturday and is used on Saturday and Sunday).
Cardiotoxicity was induced by a single intraperitoneal injection of doxorubicin (DOX) at 20 mg/kg. […]
The bodyweight was assessed at inclusion and at D5.
The survival rate was recorded every day until the end of the experiment (D5). […]
The following cardiac function were assessed during ECG: • Left ventricle (LV) end-systolic and end-diastolic inner diameter; • LV end-systolic and end-diastolic volume, • Fractionnal shortening; • Ejection fraction; • Heart Rate; and • Anterior and posterior wall thickness in Diastole and in systole.

SMILES: NC(=O)c1ccc[n+]([C@@H]2O[C@H](COP(=O)([O-])OP(=O)([O-])OC[C@H]3O[C@H]([n+]4cccc(C(N)=O)c4)[C@H](O)[C@@H]3O)[C@@H](O)[C@H]2O)c1 [Compound I-B]
- reduction in plasma LDH release/levels: 50-55%

SMILES: NC(=O)c1ccc[n+]([C@H]2O[C@H](COP(=O)([O-])OP(=O)([O-])OC[C@H]3O[C@H]([n+]4cccc(C(N)=O)c4)[C@H](O)[C@@H]3O)[C@@H](O)[C@H]2O)c1 [Compound I-C]
- reduction in plasma LDH release/levels: 50-55%
